The list does not hold the whole screen: it is rich in T/C values a quarter to a half above the control, in often repeated tests (any T/C) and in doses without a T/C. Further doses and runs are listed elsewhere. T/C: endpoint of the treated group in % of that of the vehicle group. Some doses have a count of surviving animals in place of a T/C: the source holds a T/C of zero for them, seemingly a mark for toxic or unscored doses. Some doses without a T/C left all or most animals alive at the check, yet need not have been tolerated: the source hardly ever lists a survival T/C far under the control, and the zero likely stands for such cases as well. Survivors were counted at the toxicity check, usually on the fifth day, unless a day is given; later deaths do not show. Schedule codes are those of the source, read here as Q, the interval in days (D) or hours (H), X, the number of doses. Some entries were tested several times; the values are given in rising order. Some schedules carry Z or #; the key to these is not given. For survival time, the PubChem record calls one and a half times the control and up active, and a quarter to a half above the control has no call in these data; cut-offs in other NCI protocols can differ. Some T/C values are followed by the survivors on the day toxicity was checked, most often the fifth; where none is given, no animal had died by that day.

This experiment deals with Lewis lung carcinoma i.m., BDF1 mice, T/C %. The experiment in a line: NCI In Vivo Anticancer Drug Screen. Data for tumor model Lewis Lung Carcinoma (intramuscular) in B6D2F1 (BDF1) mice. The procedure, abridged: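 Mice carrying transplantable tumours received test compound. Survival or tumour size was recorded and expressed as the treated-group value (T) divided by the vehicle-treated control-group value (C).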

[1] abbreviates: T/C endpoint: median survival time, dose: 50.0 mg/kg/injection, schedule: Q01DX011 (ip), vehicle: steroid suspending solution, higher T/C = longer survival.

As for `O=C1CN(CCN2CC(=O)NC(=O)C2)CC(=O)N1`, the survivor count was 5 of 8 (T/C endpoint: mean tumor weight, dose: 100.0 mg/kg/injection, schedule: Q01DX011 (ip), vehicle: steroid suspending solution, higher T/C = larger tumour); 6 of 8 under setting [1]; 0 of 8 and 5 of 8 (T/C endpoint: median survival time, dose: 100.0 mg/kg/injection, schedule: Q01DX011 (ip), vehicle: steroid suspending solution, higher T/C = longer survival). In addition, the T/C under setting [1] is 127 % of control [7 of 8 alive].
Consider `Nc1nc(=O)n(C2OC(CO)C(O)C2O)cc1F` (configuration not stated), for which the survivor count was 8 of 8 (T/C endpoint: median survival time, dose: 64.0 mg/kg/injection, schedule: Q01DX011 (ip), vehicle: saline, higher T/C = longer survival) and 8 of 8 (T/C endpoint: median survival time, dose: 128.0 mg/kg/injection, schedule: Q01DX011 (ip), vehicle: saline, higher T/C = longer survival).
Take `Oc1ccc(I)c2cccnc12`: the survivor count (T/C endpoint: mean tumor weight (est.), dose: 200.0 mg/kg/injection, schedule: Q01DX011 (ip), vehicle: saline, higher T/C = larger tumour) is given as 3 of 8; the survivor count (T/C endpoint: median survival time, dose: 200.0 mg/kg/injection, schedule: Q01DX011 (ip), vehicle: saline, higher T/C = longer survival) is reported as 3 of 8; the survivor count (T/C endpoint: median survival time, dose: 400.0 mg/kg/injection, schedule: Q01DX011 (ip), vehicle: saline, higher T/C = longer survival) is 0 of 8; the survivor count (T/C endpoint: median survival time, dose: 800.0 mg/kg/injection, schedule: Q01DX011 (ip), vehicle: saline, higher T/C = longer survival) is given as 0 of 8.
`CC(=O)C(O)N1C(=O)C=CC1=O` (configuration not stated): the T/C was 127 % of control (T/C endpoint: median survival time, dose: 0.31 mg/kg/injection, schedule: Q01DX011 (ip), vehicle: water, higher T/C = longer survival); 130 % of control (T/C endpoint: median survival time, dose: 0.31 mg/kg/injection, schedule: Q#A X022 (ip), vehicle: water, higher T/C = longer survival); 125 % of control (T/C endpoint: median survival time, dose: 0.62 mg/kg/injection, schedule: Q#A X022 (ip), vehicle: water, higher T/C = longer survival); 132 % of control (T/C endpoint: median survival time, dose: 1.25 mg/kg/injection, schedule: Q01DX011 (ip), vehicle: water, higher T/C = longer survival). For the same molecule, the survivor count runs as follows: (T/C endpoint: median survival time, dose: 5.0 mg/kg/injection, schedule: Q01DX011 (ip), vehicle: water, higher T/C = longer survival) 4 of 8; (T/C endpoint: median survival time, dose: 10.0 mg/kg/injection, schedule: Q01DX011 (ip), vehicle: water, higher T/C = longer survival) 0 of 8; (T/C endpoint: median survival time, dose: 10.0 mg/kg/injection, schedule: Q#A X022 (ip), vehicle: water, higher T/C = longer survival) 0 of 8.
In the case of `Cc1ccc(NC(=O)N(CCCl)N=O)cc1C`, the survivor count is, setting by setting: (T/C endpoint: median survival time, dose: 39.0 mg/kg/injection, schedule: Q07DX003 (ip), vehicle: Klucel (hydroxypropylcellulose) (HPC), higher T/C = longer survival) 8 of 8; (T/C endpoint: median survival time, dose: 65.0 mg/kg/injection, schedule: Q07DX003 (ip), vehicle: Klucel (hydroxypropylcellulose) (HPC), higher T/C = longer survival) 6 of 8.
Take `Nc1nc2n[nH]nc2c(=O)[nH]1`: the survivor count was 5 of 8 (T/C endpoint: mean tumor weight, dose: 50.0 mg/kg/injection, schedule: Q01DX011 (ip), vehicle: other, higher T/C = larger tumour) and 3 of 8 (T/C endpoint: mean tumor weight, dose: 200.0 mg/kg/injection, schedule: Q01DX011 (ip), vehicle: other, higher T/C = larger tumour).
With `CO[C@H]1/C=C/O[C@@]2(C)Oc3c(C)c(O)c4c(O)c(c(/C=N/N5C(C)CN(Cc6ccccc6)CC5C)c(O)c4c3C2=O)NC(=O)/C(C)=C\C=C\[C@H](C)[C@H](O)[C@@H](C)[C@@H](O)[C@@H](C)[C@H](OC(C)=O)[C@@H]1C` (some centres not stated), the survivor count (T/C endpoint: median survival time, dose: 100.0 mg/kg/injection, schedule: Q02DX009 (ip), vehicle: Klucel (hydroxypropylcellulose) (HPC), higher T/C = longer survival) was 8 of 8; the survivor count (T/C endpoint: median survival time, dose: 100.0 mg/kg/injection, schedule: Q02DX009 (ip), vehicle: other, higher T/C = longer survival) is 8 of 8; the survivor count (T/C endpoint: median survival time, dose: 400.0 mg/kg/injection, schedule: Q02DX009 (ip), vehicle: other, higher T/C = longer survival) is on record as 8 of 8; the survivor count (T/C endpoint: median survival time, dose: 800.0 mg/kg/injection, schedule: Q02DX009 (ip), vehicle: Klucel (hydroxypropylcellulose) (HPC), higher T/C = longer survival) is given as 8 of 8; the survivor count (T/C endpoint: median survival time, dose: 1600.0 mg/kg/injection, schedule: Q02DX009 (ip), vehicle: Klucel (hydroxypropylcellulose) (HPC), higher T/C = longer survival) was 8 of 8.
For `O=NN(CCCl)C(=O)Nc1ccc(CCO)cc1`, the survivor count is 5 of 8 (T/C endpoint: median survival time, dose: 12.5 mg/kg/injection, schedule: Q07DX003 (ip), vehicle: Klucel (hydroxypropylcellulose) (HPC), higher T/C = longer survival); 2 of 8 (T/C endpoint: median survival time, dose: 25.0 mg/kg/injection, schedule: Q07DX003 (ip), vehicle: Klucel (hydroxypropylcellulose) (HPC), higher T/C = longer survival); 1 of 8 (T/C endpoint: median survival time, dose: 50.0 mg/kg/injection, schedule: Q07DX003 (ip), vehicle: Klucel (hydroxypropylcellulose) (HPC), higher T/C = longer survival); 4 of 8 (T/C endpoint: median survival time, dose: 100.0 mg/kg/injection, schedule: Q07DX003 (ip), vehicle: Klucel (hydroxypropylcellulose) (HPC), higher T/C = longer survival); 0 of 8 (T/C endpoint: median survival time, dose: 200.0 mg/kg/injection, schedule: Q07DX003 (ip), vehicle: Klucel (hydroxypropylcellulose) (HPC), higher T/C = longer survival).
In the case of `CCCCC/C(C)=N\Nc1ccccn1`, the survivor count (T/C endpoint: median survival time, dose: 12.5 mg/kg/injection, schedule: Q01DX011 (ip), vehicle: saline with Tween-80, higher T/C = longer survival) is 8 of 8 and the survivor count (T/C endpoint: median survival time, dose: 100.0 mg/kg/injection, schedule: Q01DX011 (ip), vehicle: saline with Tween-80, higher T/C = longer survival) is given as 0 of 8.
For the molecule `O=C(O)c1[nH]c(=O)[nH]c(=O)c1F`, the survivor count reads like this: (T/C endpoint: median survival time, dose: 5.0 mg/kg/injection, schedule: Q01DX011 (ip), vehicle: other, higher T/C = longer survival) 8 of 8; (T/C endpoint: median survival time, dose: 10.0 mg/kg/injection, schedule: Q01DX011 (ip), vehicle: other, higher T/C = longer survival) 0 of 8; (T/C endpoint: median survival time, dose: 20.0 mg/kg/injection, schedule: Q01DX011 (ip), vehicle: other, higher T/C = longer survival) 0 of 8; (T/C endpoint: median survival time, dose: 40.0 mg/kg/injection, schedule: Q01DX011 (ip), vehicle: other, higher T/C = longer survival) 0 of 8.
Regarding `CCn1cnc2c(=S)nc[nH]c21`, the survivor count reads like this: (T/C endpoint: mean tumor weight (est.), dose: 1.56 mg/kg/injection, schedule: Q01DX011 (ip), vehicle: Klucel (hydroxypropylcellulose) (HPC), higher T/C = larger tumour) 4 of 8; (T/C endpoint: mean tumor weight (est.), dose: 3.12 mg/kg/injection, schedule: Q01DX011 (ip), vehicle: Klucel (hydroxypropylcellulose) (HPC), higher T/C = larger tumour) 5 of 8; (T/C endpoint: mean tumor weight (est.), dose: 12.5 mg/kg/injection, schedule: Q01DX011 (ip), vehicle: Klucel (hydroxypropylcellulose) (HPC), higher T/C = larger tumour) 4 of 8; (T/C endpoint: mean tumor weight, dose: 3.12 mg/kg/injection, schedule: Q01DX011 (ip), vehicle: steroid suspending solution, higher T/C = larger tumour) 2 of 8; (T/C endpoint: mean tumor weight, dose: 12.5 mg/kg/injection, schedule: Q01DX011 (ip), vehicle: steroid suspending solution, higher T/C = larger tumour) 4 of 8; (T/C endpoint: mean tumor weight, dose: 25.0 mg/kg/injection, schedule: Q01DX011 (ip), vehicle: Klucel (hydroxypropylcellulose) (HPC), higher T/C = larger tumour) 3 of 8. Also, the survivor count reads like this: (T/C endpoint: mean tumor weight, dose: 25.0 mg/kg/injection, schedule: Q01DX011 (ip), vehicle: steroid suspending solution, higher T/C = larger tumour) 5 of 8; (T/C endpoint: median survival time, dose: 0.78 mg/kg/injection, schedule: Q01DX011 (ip), vehicle: Klucel (hydroxypropylcellulose) (HPC), higher T/C = longer survival) 8 of 8; (T/C endpoint: median survival time, dose: 1.56 mg/kg/injection, schedule: Q01DX011 (ip), vehicle: Klucel (hydroxypropylcellulose) (HPC), higher T/C = longer survival) 4 of 8; (T/C endpoint: median survival time, dose: 3.12 mg/kg/injection, schedule: Q01DX011 (ip), vehicle: Klucel (hydroxypropylcellulose) (HPC), higher T/C = longer survival) 5 of 8; (T/C endpoint: median survival time, dose: 3.12 mg/kg/injection, schedule: Q01DX011 (ip), vehicle: steroid suspending solution, higher T/C = longer survival) 2 of 8; (T/C endpoint: median survival time, dose: 12.5 mg/kg/injection, schedule: Q01DX011 (ip), vehicle: Klucel (hydroxypropylcellulose) (HPC), higher T/C = longer survival) 4 of 8. The survivor count is on record as 4 of 8 (T/C endpoint: median survival time, dose: 12.5 mg/kg/injection, schedule: Q01DX011 (ip), vehicle: steroid suspending solution, higher T/C = longer survival); 3 of 8 (T/C endpoint: median survival time, dose: 25.0 mg/kg/injection, schedule: Q01DX011 (ip), vehicle: Klucel (hydroxypropylcellulose) (HPC), higher T/C = longer survival); 5 of 8 (T/C endpoint: median survival time, dose: 25.0 mg/kg/injection, schedule: Q01DX011 (ip), vehicle: steroid suspending solution, higher T/C = longer survival); 0 of 8 (T/C endpoint: median survival time, dose: 50.0 mg/kg/injection, schedule: Q01DX011 (ip), vehicle: Klucel (hydroxypropylcellulose) (HPC), higher T/C = longer survival); 0 of 8 (T/C endpoint: median survival time, dose: 100.0 mg/kg/injection, schedule: Q01DX011 (ip), vehicle: Klucel (hydroxypropylcellulose) (HPC), higher T/C = longer survival); 0 of 8 (T/C endpoint: median survival time, dose: 200.0 mg/kg/injection, schedule: Q01DX011 (ip), vehicle: Klucel (hydroxypropylcellulose) (HPC), higher T/C = longer survival). Also, the T/C was 129 % of control [7 of 8 alive] (T/C endpoint: median survival time, dose: 1.56 mg/kg/injection, schedule: Q01DX011 (ip), vehicle: steroid suspending solution, higher T/C = longer survival) and 145 % of control [6 of 8 alive] (T/C endpoint: median survival time, dose: 6.25 mg/kg/injection, schedule: Q01DX011 (ip), vehicle: steroid suspending solution, higher T/C = longer survival).

The record behind these values is PubChem BioAssay AID272 (DTP/NCI, 2004).
